PubChem BioAssay AID1159584 – Peter MacCallum Cancer Centre – 2016

- Test: 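Genes whose loss is lethal only together with E-cadherin loss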 (primary screen)
- Cell system: human MCF10A breast epithelial cells, parental and CDH1-null
- Knock-down reagent: siRNA against human genes
- Detection: 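Cell viability by CellTiter-Glo ATP luminescence, each line scaled to the mean of mock wells across plates, then CDH1-null over parental ratio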
- Direction: CDH1-null / parental viability ratio: higher = CDH1-null cells survive relatively better than parental
The whole screen tested about 18,000 reagents; shown is a part drawn at random. Further read-outs or replicates are left out here. No sequences are given here. Not given: the amount of reagent, the time to read-out.

The opening 4 records as a preview:
| target | PubChem SID | CDH1-null / parental viability ratio |
| --- | --- | --- |
| NEUROD4 (neuronal differentiation 4) | SID152147650 | 1.04 |
| BTNL9 (butyrophilin like 9) | SID152153420 | 0.84 |
| EYA2 (EYA transcriptional coactivator and phosphatase 2) | SID152150977 | 1.45 |
| POMGNT2 | SID134322561 | 0.98 |

Results, repeating the preview:
| target | PubChem SID | CDH1-null / parental viability ratio |
| --- | --- | --- |
| NEUROD4 (neuronal differentiation 4) | SID152147650 | 1.04 |
| BTNL9 (butyrophilin like 9) | SID152153420 | 0.84 |
| EYA2 (EYA transcriptional coactivator and phosphatase 2) | SID152150977 | 1.45 |
| POMGNT2 | SID134322561 | 0.98 |
| CTSC (cathepsin C) | SID135621081 | 1.47 |
| PLEKHF2 (pleckstrin homology and FYVE domain containing 2) | SID134322267 | 1 |
| GBA1 (glucosylceramidase beta 1) | SID152156489 | 0.93 |
| PIWIL2 (piwi like RNA-mediated gene silencing 2) | SID135620856 | 0.72 |
| VWA5B1 (von Willebrand factor A domain containing 5B1) | SID135623055 | 1.11 |
| GALNT10 (polypeptide N-acetylgalactosaminyltransferase 10) | SID152155210 | 0.96 |
| FAM13A (family with sequence similarity 13 member A) | SID135624002 | 1.07 |
| CST7 (cystatin F) | SID134321185 | 0.82 |
| DDX51 (DEAD-box helicase 51) | SID152151408 | 1.22 |
| LETMD1 (LETM1 domain containing 1) | SID135623236 | 0.97 |
| ITGA5 (integrin subunit alpha 5) | SID135621485 | 1.14 |
| ARHGAP29 (Rho GTPase activating protein 29) | SID152151810 | 0.62 |
| MPRIP (myosin phosphatase Rho interacting protein) | SID152154323 | 0.84 |
| NCOR1 (nuclear receptor corepressor 1) | SID134309935 | 0.87 |
| ADAMTS12 (ADAM metallopeptidase with thrombospondin type 1 motif 12) | SID152153086 | 0.97 |
| SINHCAF (SIN3-HDAC complex associated factor) | SID135624643 | 1.17 |
| PODNL1 (podocan like 1) | SID134318619 | 1.18 |
| MED4 (mediator complex subunit 4) | SID134324338 | 0.95 |
| STON1-GTF2A1L (STON1-GTF2A1L readthrough) | SID134321419 | 0.95 |
| H2AZ2 (H2A.Z variant histone 2) | SID134316743 | 0.86 |
| CKS2 (CDC28 protein kinase regulatory subunit 2) | SID56479182 | 0.96 |
| CDH22 (cadherin 22) | SID134317336 | 0.92 |
| LINC00518 (long independently transcribed non-coding RNA 518) | SID134320250 | 0.96 |
| GNL3L (G protein nucleolar 3 like) | SID152146980 | 0.8 |
| APC2 (APC regulator of Wnt signaling pathway 2) | SID152155591 | 0.83 |
| MDC1 (mediator of DNA damage checkpoint 1) | SID152156105 | 0.76 |
| ZBP1 (Z-DNA binding protein 1) | SID134318763 | 0.96 |
| KRTAP10-7 (keratin associated protein 10-7) | SID135624997 | 1.04 |
| YDJC (YdjC chitooligosaccharide deacetylase homolog) | SID152149941 | 1.05 |
| PYDC2 (pyrin domain containing 2) | SID152156168 | 1.05 |
| SLC30A9 | SID152153501 | 1.05 |
| ARSH (arylsulfatase family member H) | SID152147884 | 1.04 |
| RAET1G (retinoic acid early transcript 1G) | SID152148724 | 1.21 |
| TNNC2 (troponin C2, fast skeletal type) | SID134323517 | 0.88 |
| RIF1 (replication timing regulatory factor 1) | SID152156092 | 1.52 |
| AFAP1L2 (actin filament associated protein 1 like 2) | SID152154177 | 1.09 |
| PABIR3 (PABIR family member 3) | SID152147911 | 0.88 |
| ANKRD34B (ankyrin repeat domain 34B) | SID152147847 | 1 |
| HMGCL (3-hydroxy-3-methylglutaryl-CoA lyase) | SID152148567 | 0.87 |
| FNTA (farnesyltransferase, CAAX box, subunit alpha) | SID135621651 | 1.25 |
| NEFL (neurofilament light chain) | SID135623908 | 1.05 |
| ACAD9 (acyl-CoA dehydrogenase family member 9) | SID134313841 | 0.82 |
